Data on 78 substances can be found in the supplement of paper PMC5949888.

Most values lie at the floor of the assay. Slopes are relative: functional sequences can read slightly below zero.

For the series, the system named is Saccharomyces cerevisiae PS128 hsf1 delta, HSF1(1-493) fusion. Description: growth estimate (transactivation domain function in HSF1 fusion, heat-shock survival) (a.u. (slope of normalised read count over time)); higher = stronger growth at 37°C, i.e. more transactivation activity. The following applies: library: random library.
Take SRL: the growth estimate was less than -0.25.
To PVGRGPRVLFKRRGSIRACP belongs less than -0.25; to ERVQLLFTLRRLAMERSQDR, less than -0.25; to HGVRHWVKGCTQSGLFSLRR, less than -0.25.
QRVTKMGSDDVYSHLVHNTF: the growth estimate is -0.246.
With SGLRQCC, the growth estimate is less than -0.25.
To GESCLRFPRACCQALRITRN belongs less than -0.25.
Take VTAHLGLALWPRSAAILSWA: the growth estimate is less than -0.25.
Turning to AKVSAACVSLSVNCHATTPG, the growth estimate was less than -0.25.
With RFSYFEKCVPGPVRVQETEA, the growth estimate is less than -0.25.
RSWGNA: the growth estimate is less than -0.25.
IARIQILKL: the growth estimate is less than -0.25.
The result for VVRVRPPGSRILPSTTLGPR reads less than -0.25.
Consider CHVLKKNRGLHRQGLERICD, for which the growth estimate was less than -0.25.
To FTSHAFYLQYPY belongs less than -0.25; to DMERVGEGVVAKLSIQHF, less than -0.25.
The result for SMTPHSRLRIAAGGFL reads less than -0.25; that for RIRVSVF, less than -0.25; that for CKLPL, less than -0.25.
Turning to PSCSLPVRSPLLKECAAQIP, the growth estimate is less than -0.25.
To RSIAGHIWTRRCSMLHSSPG belongs less than -0.25.
The result for GTGVIATMFVSSGAGVRVRV reads less than -0.25; that for YGHHFPSVFSDCLGRPNREC, less than -0.25.
The result for RVLHEQR reads less than -0.25.
With RRCLHARVHEVPEAILMITV, the growth estimate was less than -0.25.
For HLHRDIILFPSPGMPADVLT, the growth estimate was less than -0.25.
The result for KCRCRTESTTILGRPSMPSA reads less than -0.25.
To SNPMSLQSVTLPRSATRGYK belongs less than -0.25; to LGVAPMMLESLGCPE, less than -0.25.
To GVAN belongs less than -0.25; to AFVGWAGVWTRDGMSATLAN, less than -0.25; to RSFLDHRVHVGK, less than -0.25.
Turning to YDTGGSSLGPRFAC, the growth estimate was less than -0.25.
The result for ATHFATNPCGASAVSHGTAW reads less than -0.25; that for EVRATQPESHLLGEESKKSF, less than -0.25; that for DRPCAMAKA, less than -0.25.
The result for LGRSPQACVRGQIGAWTSMV reads less than -0.25; that for WGYQTVKSDCSHRVSENVDI, less than -0.25; that for LIYFTAAEVYPALSSVSGMQ, -0.245.
LDGGTRVL: the growth estimate was less than -0.25.
In the case of IGILRVNLQTCSEADPRIHA, the growth estimate was less than -0.25.
To HDML belongs less than -0.25; to ESYTFVICMDRTRKVKCYPS, -0.217.
As for VIMLSVHGD, the growth estimate was less than -0.25.
As to VCECIFLCRLEQIPVLIMLS, the growth estimate is less than -0.25.
In the case of RRSVGAFAERRSMVGSYQWM, the growth estimate was less than -0.25.
To TGFTTHGTTRCAGSMPGITA belongs less than -0.25.
To PRLPRNHQDRHSRGQLREAR belongs -0.243; to LIL, -0.217; to ATEACWSSSCSEAEVSYNQT, less than -0.25.
The result for FRGIAWGGIRGSILTAQFYT reads less than -0.25; that for DLMAAQKVDGVRCSIVILIP, less than -0.25; that for SSDISYSGRNLAASPLTGPG, less than -0.25.
Take YTVFQTVSQNDIALAYPTYL: the growth estimate is 0.783.
Turning to KKSGAGGIPATRTSAGGYSM, the growth estimate is less than -0.25.
Consider RNGNPKGWPGGLEGLRTR, for which the growth estimate is less than -0.25.
To TSLV belongs less than -0.25; to GTHDEVAGGLTGPSEWRLVL, less than -0.25; to AQSTKK, less than -0.25.
The result for DYVANETAQTLRQEASGLKP reads less than -0.25.
On to GRVA, for which the growth estimate is less than -0.25.
To ETHCPTGSWARSLEGRNGLH belongs less than -0.25; to LLGHQIRCKHECHSLLNFSE, less than -0.25.
To YLDNSCTQGFGFRPGWSVLL belongs less than -0.25; to SCHRGRPN, less than -0.25.
As for QECAHSN, the growth estimate was less than -0.25.
To YGTGSQRLA belongs less than -0.25; to TGYVVGVETYPTGRGAGGEL, less than -0.25.
The result for GVASDASDTCVWYSGELTQR reads less than -0.25; that for YCRR, less than -0.25.
To QLNRVDPIIVRLSAPN belongs less than -0.25; to RGTFASVGKSIMGSRDLKDR, less than -0.25.
On to AGLWFLFCDWSR, for which the growth estimate was less than -0.25.
The result for TYRHVPAADVATDGQNSLVR reads less than -0.25; that for FIGDW, less than -0.25; that for PGLRSPLRTEGMRW, less than -0.25.
The result for RSQTN reads less than -0.25.
To TQMREFGHERGPRGFVRRCR belongs less than -0.25.
